Experimental data taken from US20210000750A1, “ENGINEERED NANOVESICLES AS CHECKPOINT BLOCKADE FOR CANCER IMMUNOTHERAPY” (NORTH CAROLINA STATE UNIVERSITY, priority 2018, published 2021).
Some results were stated once for a whole list of compounds, not compound by compound.

Key:
B16F10 melanoma tumor = experiment: In vivo anti-tumor efficacy study of NVs; design: species or system C57BL/6 mice; conditions: seven-group study, every 3 days for five cycles
Protocol: Female C57BL/6 mice were purchased from Jackson Lab (USA). All mouse studies were performed in the context of an animal protocol approved by the Institutional Animal Care and Use Committee at North Carolina State University and University of North Carolina at Chapel Hill. Mice were weighed and randomly divided into different groups. 5 d after 1×10^6 B16F10 tumor cells subcutaneously transplanted into the abdomen of mice (the tumor reaches 40-50 mm^3), PBS, Free nanovesicles (25 mg/kg), PD-1 nanovesicles (25 mg/kg), 1-MT (2.5 mg/kg), 1-MT loaded PD-1 nanovesicles (25 mg/kg), anyi-PD-L1 antibody (2 mg/kg) were administered into mice by tail-vein injection. Tumor incidences were monitored by physical examination and sizes were also measured by digital caliper over time. Tumors were measured by using a vernier calipers and the volume (V) was calculated to be V=d^2×D/2, where d is the shortest and the D is longest diameter of the tumor in mm respectively. To assess potential toxicities, mice were monitored daily for weight loss. For survival assays, the experiments were performed separately.
Bioluminescence images were collected with a Xenogen IVIS Spectrum Imaging System. Living Image software (Xenogen) was used to acquire the data 10 min after intraperitoneal injection of d-luciferin (Pierce) in DPBS (15 mg/mL) into animals (10 μL/g of body weight).

CD8^+ T cells = experiment: Tumor-infiltrated T cells, flow cytometry and immunofluorescence (NV study); type: in vivo, C57BL/6 mice; conditions: seven-group study, flow cytometry

Cn1cc(C[C@H](N)C(=O)O)c2ccccc21 [1-MT, 1-methyl-tryptophan]
response rate (B16F10 melanoma tumor): > 80%
increase in number of infiltrating CD8+ T cells compared to the PBS-treated group (CD8^+ T cells): 15-20%
